In the supplement of paper PMC8166895:
Where a name gives a salt, the structure may show the parent alone. The list shows a part of the results. Most entries show no effect beyond the scatter of the controls.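 A single-replicate pilot screen of approved drugs and clinical or known-target compounds measured melting temperature via differential scanning fluorimetry. Top stabilizing hits raised the melting point by 2 °C or more; negative shifts indicate destabilization.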

Test system: SARS-CoV-2 main protease (Mpro, nsp5)
Experiment: thermal shift ΔTm of Mpro relative to plate average Tm; higher = stronger thermal stabilization of Mpro (binding)
Conditions: 10 µM; protein concentration 1 µM

| SMILES | thermal shift ΔTm of Mpro [°C] |
| --- | --- |
| Cn1cc(C2=C(c3cn(C4CCN(Cc5ccccn5)CC4)c4ccccc34)C(=O)NC2=O)c2ccccc21 | -0.04 |
| CCOc1ccc(Cc2nccc3cc(OCC)c(OCC)cc23)cc1OCC [Ethaverine hydrochloride] | 0.163 |
| C[C@@H]1CC[C@@]2(OC1)O[C@H]1C[C@H]3[C@@H]4CC=C5C[C@@H](O[C@@H]6O[C@H](CO)[C@@H](O[C@@H]7O[C@@H](C)[C@H](O)[C@@H](O)[C@H]7O)[C@H](O)[C@H]6O[C@@H]6O[C@@H](C)[C@H](O)[C@@H](O)[C@H]6O)CC[C@]5(C)[C@H]4CC[C@]3(C)[C@H]1[C@@H]2C [Dioscin] | -0.176 |
| O=C1C=CC(=O)C(c2cc(Cl)ccc2Cl)=C1 | -4.93 |
| C=CCN1CC[C@]23c4c5ccc(O)c4O[C@H]2C(=O)CC[C@@]3(O)[C@H]1C5 [Naloxone HCl Dihydrate] | 0.00115 |
| C=CCN1CC[C@]23c4c5ccc(O)c4O[C@H]2C(=O)CC[C@@]3(O)[C@H]1C5 [Naloxone HCl] | 0.232 |
| O=C(NCc1ccc(S(=O)(=O)c2cc(F)cc(F)c2)cc1)c1ccc2nccn2c1 | -0.219 |
| O=c1cc[nH]c(=O)[nH]1 [Uracil] | 0.00232 |
| Cc1noc(-c2ccc(CSCCC(=O)O)cc2)c1NC(=O)OC(C)c1ccccc1Cl (stereo not drawn) | 0.196 |
| CCOC(=O)N1c2ccc(C(F)(F)F)cc2[C@@H](N(Cc2cc(C(F)(F)F)cc(C(F)(F)F)c2)C(=O)OC)C[C@H]1CC [Torcetrapib] | -0.0358 |
| NC(=O)C(c1ccccc1)(c1ccc(F)cc1)c1ccc(F)cc1 [Senicapoc] | -0.133 |
| Cc1ccc(C(=O)Nc2cccc(C(F)(F)F)c2)cc1Nc1nc(-c2cccnc2)nc2c1cnn2C | 0.267 |
| COc1ccc(-c2cc(=O)c3c(OC)c(OC)c(OC)c(OC)c3o2)cc1OC [Nobiletin] | -0.168 |
| N#Cc1c(Oc2ccc(F)c(NC(=O)Cc3cccc(C(F)(F)F)c3)c2)ccc2nc(NC(=O)C3CC3)sc12 | 0.951 |
| CCC[C@@H]1C[C@@H](C(=O)N[C@@H]([C@H]2O[C@H](SC)[C@H](O)[C@@H](O)[C@H]2O)[C@@H](C)O)N(C)C1 [Lincomycin hydrochloride monohydrate] | -0.0776 |
| CCC[C@@H]1C[C@@H](C(=O)N[C@@H]([C@H]2O[C@H](SC)[C@H](O)[C@@H](O)[C@H]2O)[C@@H](C)O)N(C)C1 [Lincomycin HCl] | -0.049 |
| O=C1N=c2ccccc2=C1c1c(O)[nH]c2ccccc12 [Isoindigotin] | -0.0562 |
| CCc1nc2c(C)cc(N3CCN(CC(=O)N4CC(O)C4)CC3)cn2c1N(C)c1nc(-c2ccc(F)cc2)c(C#N)s1 | -0.116 |
| CN1CCCN=C1/C=C/c1cccs1 [Pyrantel tartrate] | 0.0663 |
| CN1CCCN=C1/C=C/c1cccs1 [Pyrantel pamoate] | 0.0077 |
| CO[C@H]1C[C@@H]2CC[C@@H](C)[C@@](O)(O2)C(=O)C(=O)N2CCCC[C@H]2C(=O)O[C@H]([C@H](C)C[C@@H]2CC[C@@H](OC(=O)C(C)(CO)CO)[C@H](OC)C2)CC(=O)[C@H](C)/C=C(\C)[C@@H](O)[C@@H](OC)C(=O)[C@H](C)C[C@H](C)/C=C/C=C/C=C/1C | -0.209 |
| Cc1ccc(Nc2nccc(N(C)c3ccc4c(C)n(C)nc4c3)n2)cc1S(N)(=O)=O [Pazopanib HCl] | -0.183 |

| SMILES | thermal shift ΔTm of Mpro [°C] |
| --- | --- |
| Cc1ccc(Nc2nccc(N(C)c3ccc4c(C)n(C)nc4c3)n2)cc1S(N)(=O)=O [Pazopanib] | -0.0947 |
| CCc1ccc(/C=C2/SC(=S)NC2=O)cc1 | 0.421 |
| CCN(CC)CCNC(=O)c1cc(Br)c(N)cc1OC [Bromopride] | -0.24 |
| CCCCC(=O)N(Cc1ccc(-c2ccccc2-c2nnn[nH]2)cc1)[C@H](C(=O)O)C(C)C [Valsartan] | 0.0217 |
| OC(CCN1CCCCC1)(c1ccccc1)c1ccccc1 [Loxeen] | 0.0368 |
| COc1cc(Nc2ncc3c(n2)-c2ccc(Cl)cc2C(c2c(F)cccc2OC)=NC3)ccc1C(=O)O [Alisertib (MLN8237)] | -0.288 |
| CC1(C)C(C(=O)Nc2ccc(S(=O)(=O)c3ccc(NC(=O)C4C(C)(C)C4(C)C)cc3)cc2)C1(C)C | 0.324 |
| CCOC(CN1CCN(CC(C)C(=O)c2ccccc2)CC1)c1ccccc1 (stereo not drawn) [Eprazinone dihydrochloride] | 0.0635 |
| OCC(CO)N[C@H]1C[C@](O)(CO)[C@@H](O)[C@H](O)[C@H]1O [Voglibose] | -0.0635 |
| Cc1cc(Nc2ncnc3ccc(NC4=NC(C)(C)CO4)cc23)ccc1Oc1ccn2ncnc2c1 [Irbinitinib] | 0.145 |
| O=C(NCC1CCOCC1)c1cnc(Nc2ccc(Cl)cc2Cl)nc1C(F)(F)F | -0.0643 |
| C[C@]12CC[C@@H]3c4ccc(OC(=O)N(CCCl)CCCl)cc4CC[C@H]3[C@@H]1CC[C@@H]2OP(=O)(O)O [Estramustine phosphate sodium] | -0.224 |
| O=CC[C@@H](O)[C@H](O)[C@H](O)CO [2-Deoxy-D-glucose] | 0.0608 |
| Cc1cnc(NC(=O)Nc2cc(Br)c(C)cc2OC[C@@H]2CNCCO2)cn1 | 0.0592 |
| Cc1c(C(=O)Nc2ccc(N3C[C@@H](C)O[C@@H](C)C3)nc2)cccc1-c1ccc(OC(F)(F)F)cc1 [LDE225 (NVP-LDE225,Erismodegib)] | -0.153 |
| O=C(NCCN1CCOCC1)Nc1ccc(C(=O)/C=C/c2cccc(N3CCOCC3)n2)cc1 | -0.114 |
| Nc1cc(C(F)(F)F)c(-c2cc(N3CCOCC3)nc(N3CCOCC3)n2)cn1 [BKM120 (NVP-BKM120, Buparlisib)] | -0.0935 |
| O=C1S/C(=C\c2ccc(OCc3cccc(B(O)O)c3)cc2)C(=O)N1Cc1ccc(F)cc1 | 0.206 |
| Cc1ccc(Sc2cncc3sc(C(N)=O)cc23)cc1 | -0.185 |
| CSCC[C@H](NC(=O)[C@H](Cc1c[nH]c2ccccc12)NC(=O)CCNC(=O)OC(C)(C)C)C(=O)N[C@@H](CC(=O)O)C(=O)N[C@@H](Cc1ccccc1)C(N)=O [Pentagastrin] | 0.152 |
| CC(C)[C@H](N=C(NS(=O)(=O)c1ccc(Cl)cc1)N1C[C@H](c2ccccc2)C(c2ccc(Cl)cc2)=N1)C(N)=O | 0.0716 |

Single entries from above:
Under thermal shift ΔTm of Mpro [°C], CN1CCCN=C1/C=C/c1cccs1 [Pyrantel pamoate] is listed with 0.0077
Under thermal shift ΔTm of Mpro [°C], NC(=O)C(c1ccccc1)(c1ccc(F)cc1)c1ccc(F)cc1 [Senicapoc] is listed with -0.133
